# According to patent US11278530B2, “Polycyclic amides as muscarinic M1 receptor positive allosteric modulators” (SUVEN LIFE SCIENCES LIMITED, priority 2017, dated 2022):
# Tested on: hippocampal θ rhythm, anesthetized male Wistar rats
# Experiment: Theta modulation in dorsal hippocampus of anesthetized rats in combination with donepezil
# Format: in vivo
# Details: donepezil alone 0.3 mg/kg, i.v., anesthetized rat
structure (smiles),measurement,value
"COc1cc2c(cc1OC)C(=O)C(CC1CCN(Cc3ccccc3)CC1)C2 (stereo not shown) [donepezil, reference compound]",hippocampal θ power,moderate increase
